Measurements taken from PubChem BioAssay AID504467 (National Center for Advancing Translational Sciences (NCATS), 2011).
About 7,700 (2.3%) of roughly 330,000 compounds were called active. Inconclusive results, whose numbers are uncertain, are shown with a selection of clear calls. Calls follow the shape of the dose curve; as a rule, active = well fitted inhibition curve with a large enough effect; inconclusive = small, poorly fitted or top-dose-only effect, or effect the other way; inactive = flat fitted curve, though single readings scatter. Where the call is inconclusive, the potency comes from a doubtful curve fit.
Potency is read from the fitted curve at half-maximal effect.

Experiment: qHTS screen for small molecules that inhibit ELG1-dependent DNA repair in human embryonic kidney (HEK293T) cells expressing luciferase-tagged ELG1; also: nearly all actives have a fitted effect of over 55% in size
Settings: HEK293T ELG1-luciferase reporter, luminescence, 16 h, DNA damage induced by 5-fluorouridine; series mostly up to 46.1 µM
How it was run: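 Cells (2,000 per well) received 5-fluorouridine plus test compound or DMSO and were incubated 16 hr at 37 °C, 5% CO2. Luciferase activity was read by luminescence 30 min after ONE-Glo addition; signal suppression marked inhibition of damage-induced ELG1 function.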
In the case of `Cc1ccc(NC(=O)c2ccc(=O)n(CC(=O)Nc3ccccc3)n2)cc1`, the Potency is reported as inconclusive: 6.51 µM [activator, full curve].
In the case of `Cc1ccccc1-n1c(SCC(=O)N2CCOCC2)nc(O)c(Cc2ccccc2)c1=O`, the Potency is reported as inconclusive: 23.1 µM [activator, single point].
For `CC(=O)Cc1ccccc1OCC(=O)O`, the Potency was inconclusive: 1.16 µM [inhibitor, single point].
With `Cc1cn2nc(N)c3ccccc3c2n1` the Potency was “inactive”.
For `O=C1CSC(c2cn(-c3ccccc3)nc2-c2ccccc2)N1Cc1ccco1` (stereo unspecified), the Potency was active: 18.4 µM.
In the case of `Cc1ccc(S(=O)(=O)N2CCN(C(C)C(=O)NCC(C)c3ccccc3)CC2)cc1` (stereo unspecified), the Potency is reported as inconclusive: 2.31 µM [inhibitor, partial curve, poor fit].
With `O=C(Nc1ccc(-c2ccco2)cc1)C1CCCN(Cc2ccc(CO)o2)C1` (stereo unspecified) the Potency was inconclusive: 7.3 µM [inhibitor, single point].
For `COC(=O)CSc1nnc(COc2cccc3ccccc23)o1`, the Potency was “inactive”.
In the case of `Nc1nc(CCl)nc(Nc2cccc3ccccc23)n1`, the Potency is reported as inconclusive: 16.4 µM [inhibitor, partial curve, poor fit].
In the case of `CCOC(=O)C(NC(=O)c1ccccc1)(OCc1ccccc1)C(F)(F)F` (stereo unspecified), the Potency is reported as “inactive”.
For `Cc1c(Cl)cccc1NC(=S)N(CCN(C)C)C(C)c1ccccn1` (stereo unspecified), the Potency was “inactive”.
For `CC(Sc1ccc2c(c1)OCCO2)C(=O)Nc1ccc2c(c1)OCO2` (stereo unspecified), the Potency was “inactive”.
For `CCOC(=O)C(C)c1nn(C)c(=O)c2ccccc12` (stereo unspecified), the Potency was inconclusive: 20.6 µM [inhibitor, single point].
In the case of `CC(OC(=O)c1ccc(O)cc1)C(=O)Nc1cc(C(F)(F)F)ccc1Cl` (stereo unspecified), the Potency is reported as inconclusive: 20.6 µM [inhibitor, single point].
With `CCCc1nnc2n1N=C(c1ccc(C)cc1)CS2` the Potency was “inactive”.
For `CCCOc1ccc(C(=O)NNC(=S)NC(=O)c2ccco2)cc1`, the Potency was inconclusive: 3.26 µM [inhibitor, single point].
For `O=C(c1ccco1)N(Cc1ccco1)c1ccc(O)cc1`, the Potency was “inactive”.
With `COc1ccccc1NC(=O)Nc1nc(CC(=O)N2CCN(c3ccccc3OC)CC2)cs1` the Potency was inconclusive: 29.1 µM [inhibitor, single point].
With `Cc1ccc(-c2nc(CS(=O)(=O)CC(=O)Nc3cc(F)ccc3F)c(C)o2)cc1` the Potency was inconclusive: 23.1 µM [inhibitor, partial curve].
With `COCCCNC(=O)c1cccn2c(=O)c3cc4ccccc4cc3nc12` the Potency was inconclusive: 32.6 µM [inhibitor, single point].
In the case of `CC1CCN(C(=O)CSc2nnc(-c3cccnc3)o2)CC1`, the Potency is reported as inconclusive: 25.9 µM [activator, partial curve, poor fit].
For `CC(C)CCc1noc(CN2CCN(CC(=O)NC(C)C)CC2)n1`, the Potency was inconclusive: 5.8 µM [inhibitor, partial curve].
For `Cc1ccc(C)c(CSC2=NCCN2C(=O)c2cccs2)c1`, the Potency was inconclusive: 18.3 µM [inhibitor, single point].
In the case of `CCOc1ccc(CNc2ccc(S(N)(=O)=O)cc2)cc1`, the Potency is reported as inconclusive: 20.6 µM [inhibitor, partial curve, poor fit].
In the case of `Cc1ccc(-c2n[nH]c(=S)nc2-c2ccc(C)cc2)cc1`, the Potency is reported as “inactive”.
With `Cc1cc(S(=O)(=O)N2CCCCCC2)c(Cl)cc1Cl` the Potency was “inactive”.
In the case of `COc1ccc2nc(NC(=O)CCc3ccc(OC)c(OC)c3)sc2c1`, the Potency is reported as “inactive”.
In the case of `Cc1ccc(NC(=O)C2CCCN(c3ncnc4c3nc3n4CCCCC3)C2)nc1` (stereo unspecified), the Potency is reported as active: 3.26 µM.
In the case of `Cn1c(SCC(=O)N/N=C/C=C/c2ccccc2[N+](=O)[O-])nc2ccccc21`, the Potency is reported as “inactive”.
In the case of `CCOC(=O)c1c(NC(=O)Cn2nc(C(F)F)cc2C(F)F)sc(C)c1C`, the Potency is reported as inconclusive: 16.4 µM [inhibitor, single point].
For `CN(CC(=O)Nc1cccc(F)c1)C(=O)c1sc2ccccc2c1Cl`, the Potency was inconclusive: 35.5 µM [activator, single point].
For `Cc1ccc(CSc2nc3ccccc3c(=O)[nH]2)cc1`, the Potency was inconclusive: 29.1 µM [activator, single point].
In the case of `CCOC(=O)Oc1c(OC)cc(C(=O)O[C@@H]2C[C@@H]3CN4CCc5c([nH]c6cc(OC)ccc56)[C@H]4C[C@@H]3[C@H](C(=O)OC)[C@H]2OC)cc1OC`, the Potency is reported as inconclusive: 3.55 µM [inhibitor, partial curve, poor fit].
With `O=C(CSc1nnc(Cc2ccccc2)o1)Nc1cccc(F)c1` the Potency was “inactive”.
For `Cc1cc(/C=C(/C#N)c2nc3ccccc3[nH]2)c(C)n1-c1cccc([N+](=O)[O-])c1`, the Potency was active: 14.6 µM.
In the case of `Cc1nc(SCn2nnc3ccccc3c2=O)nc(C)c1C`, the Potency is reported as inconclusive: 14.6 µM [activator, partial curve].
With `Cc1ccc(Nc2nc3ccccc3nc2-n2nc(C)cc2C)cc1` the Potency was “inactive”.
For `O=C(/C=C/c1ccc(OCCCF)cc1)N1CCOCC1`, the Potency was inconclusive: 14.6 µM [activator, partial curve].
For `O=C1C2=C(c3ccccc31)[N+](=O)C1CCCCC1N2[O-]` (stereo unspecified), the Potency was inconclusive: 25.9 µM [activator, single point].
For `CNC(=S)N(Cc1ccc(OC)cc1)C1CC(=O)N(c2ccc(Cl)cc2)C1=O` (stereo unspecified), the Potency was inconclusive: 20.6 µM [inhibitor, single point].
For `CCSc1ccc(-c2cccc([N+](=O)[O-])c2)nn1`, the Potency was inconclusive: 13 µM [activator, partial curve].
For `COc1ccc(N2CCN(C(=O)C3CCCN(c4ncnc5c4nc4n5CCCCC4)C3)CC2)cc1` (stereo unspecified), the Potency was active: 3.66 µM.
For `COc1ccc(CCNC(=O)CSc2nnnn2Cc2ccc3c(c2)OCO3)cc1OC`, the Potency was inconclusive: 18.4 µM [inhibitor, partial curve].
For `O=C(/C=C\Nc1ccccn1)c1ccc(Cl)cc1`, the Potency was inconclusive: 0.411 µM [activator, full curve].
In the case of `O=C(N/N=C/c1cccc(O)c1)c1ccc(COc2ccccc2Br)cc1`, the Potency is reported as “inactive”.
With `c1ccc(-c2ccc(-c3ccccn3)s2)nc1` the Potency was inconclusive: 3.26 µM [activator, full curve].
